Test [1] deals with 6×His-tagged human LILRB2 ECD recombinant protein (human) (UniProt Q8N423). Nature of the test: Bio-Layer Interferometry (Octet). In general terms: In BLI a coated tip is dipped into the sample, and binding shifts an interference pattern.
Test [2] has the same target. Nature of the test: Surface Plasmon Resonance (Biacore). (In general: Surface plasmon resonance follows binding to a sensor surface in real time, without labels.)
The target is the same in test [3]. In words: ELISA, 0.5 µg/mL antibody on coated LILRB2 ECD. (In general: In an ELISA, binding on a coated surface is turned into a signal by an enzyme label.)
For test [4] the target is unchanged. Nature of the test: Bio-Layer Interferometry.
For test [5] the target is unchanged. Nature of the test: Bio-Layer Interferometry (Octet), 1:1 model.

The chains behind the UniProt entries cited, without tags or fusion partners. Residues count along the entry.
UniProt Q8N423, residues 22-458: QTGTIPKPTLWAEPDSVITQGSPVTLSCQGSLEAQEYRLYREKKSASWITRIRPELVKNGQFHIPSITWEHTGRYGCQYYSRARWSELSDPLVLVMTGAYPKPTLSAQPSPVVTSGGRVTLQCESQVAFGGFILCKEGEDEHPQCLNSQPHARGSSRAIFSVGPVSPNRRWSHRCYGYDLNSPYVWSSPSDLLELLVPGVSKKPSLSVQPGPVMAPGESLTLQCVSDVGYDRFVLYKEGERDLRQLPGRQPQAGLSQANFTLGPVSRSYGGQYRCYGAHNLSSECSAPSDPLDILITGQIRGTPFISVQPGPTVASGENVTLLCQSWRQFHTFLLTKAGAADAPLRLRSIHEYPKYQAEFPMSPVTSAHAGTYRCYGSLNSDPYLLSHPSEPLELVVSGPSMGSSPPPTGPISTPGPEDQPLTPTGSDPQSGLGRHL

Numbering of substitutions follows the chain as printed. Names may count otherwise. These are yes or no findings as the source states them, for the method shown. Some entries that bind do so weakly or less than the wild type.

B1: hu043.04 (antibody, V domains shown)
VH: QVQLVQSGAEVKKPGASVKVSCKASGYTFTSYWMYWVRQAPGQGLEWIGHINPSSGYTKYNQKFKDRATLTADTSTSTAYMELSSLRSEDTAVYYCARDPNWDNYWGQGTTVTVSS
VL: DIQMTQSPSSLSASVGDRVTITCKASQDVSIAVAWYQQKPGKAPKLLIYSASYRYTGVPSRFSGSGSGTDFTFTISSLQPEDIATYYCQQHYSTPYTFGGGTKLEIK
notes: Humanized human IgG4 antibody with S228P in the constant region; also called hu043VH6 / hu043VL2
Regarding B1, in test [1], the binding entry is recorded as “binds”.

B2: hu043.08 (antibody, V domains shown)
VH: B1 VH with R67K, T74K, V112L
VL: B1 VL with L11M, L78V
notes: Humanized human IgG4 antibody with S228P in the constant region; also called hu043VH10 / hu043VL1
On to B2, for which the binding result in test [2] was “binds”.

B3: hu043.01 (antibody, V domains shown)
VH: B1 VH
VL: B1 VL with Q3V, T20S, S60D
notes: Humanized human IgG4 antibody with S228P in the constant region; also called hu043VH6 / hu043VL4
B3: the binding entry in test [1] is on record as “binds”.

B4: hu043.06 (antibody, V domains shown)
VH: B1 VH with V5Q, V20L, A40R
VL: B1 VL
notes: Humanized human IgG4 antibody with S228P in the constant region; also called hu043VH8 / hu043VL2
Regarding B4, the binding result in test [1] is “binds”.

B5: hu043.07 (antibody, V domains shown)
VH: B1 VH with R67K, T74K
VL: B1 VL with L11M, L78V
notes: Humanized human IgG4 antibody with S228P in the constant region; also called hu043VH9 / hu043VL1
B5: the binding entry in test [2] is listed as “binds”.

B6: hu043.02 (antibody, V domains shown)
VH: B1 VH with A68V, L70M, A79V
VL: B1 VL with Q3V, T20S, S60D
notes: Humanized human IgG4 antibody with S228P in the constant region; also called hu043VH7 / hu043VL4
In the case of B6, the binding result in test [1] was “binds”.

B7: hu043.05 (antibody, V domains shown)
VH: B1 VH with A68V, L70M, A79V
VL: B1 VL
notes: Humanized human IgG4 antibody with S228P in the constant region; also called hu043VH7 / hu043VL2
As for B7, the binding entry in test [1] was “binds”.

B8: hu043.03 (antibody, V domains shown)
VH: B1 VH with V5Q, V20L, A40R
VL: B1 VL with Q3V, T20S, S60D
notes: Humanized human IgG4 antibody with S228P in the constant region; also called hu043VH8 / hu043VL4
For the molecule B8, the binding result in test [1] is “binds”.

B9: J-19 (antibody, V domains shown)
VH: QVTLKESGPGILQPSHTLSLTCSFSGFSLNTYAMGVSWIRQPSGKGLEWLASIWWNGNKYNNPSLKSRLTVSKDTSNNQAFLKVTSVDTADTATYYCAHSRIIRFTDYVMDAWGQGASVTVSS
VL: DIQMTQSPASLSTFLGEPVTIECRASEDIYNDLAWYQQKPGKSPQLLIYNANSLHTGVPSRFSGSGSGTQYSLKINSLQSEDVASYFCQQYYDYPLTFGSGTKLEIK
notes: Human IgG4 monoclonal antibody with S228P in the constant region, made according to WO 2019/126514 A2; also called benchmark antibody J-19
As to B9, the binding entry in test [3] was “binds”.

B10: 1E1 (antibody, V domains shown)
VH: QVQLQQWGAGLLKPSETLSLTCAVYGGSFSGYYWSWIRQPPGKGLEWIGEINHSGSTNYNPSLKSRVTISVDTSKNQFSLKLSSVTAADTAVYYCARLPTRWVTTRYFDLWGRGTLVTVSS
VL: QSVLTQPPSVSGAPGQRVTISCTGSSSNIGAGYDVHWYQQLPGTAPKLLIYGNSNRPSGVPDRFSVSKSGASASLAITGLQAEDEADYYCQSFDNSLSAYVFGGGTQLTVL
notes: Human IgG4 monoclonal antibody with S228P in the constant region, made according to US 2018/0298096 A1; also called benchmark antibody 1E1
As to B10, the binding entry in test [3] is listed as “binds”.

B11: monoclonal antibody secreted by hybridoma clone 8G2F10 (antibody, V domains shown)
VH: QVQLQQSGAELAKPGASVKLSCKASGYTFTSYWMYWVKQRPGQGLEWIGHINPSSGYTKYNQKFKDKATLTADKSSSTAYMQLSSLTYEDSAVYYCARDPNWDNYWGQGTTLTVSS
VL: DIVMTQSHKFMSTSVGDRVSITCKASQDVSIAVAWYQQKPGQSPKLLIYSASYRYTGVPDRFTGSGSGTDFTFTISSVQAEDLAVYYCQQHYSTPYTFGGGTKLEIK
notes: Mouse hybridoma antibody
As to B11, the binding entry in test [4] is “binds”.

B12: 043c (antibody, V domains shown)
VH: B11 VH
VL: B11 VL
notes: Human IgG4 chimeric antibody with S228P mutation at the Fc region; also called chimeric antibody 043c; parental antibody 043c
With B12, the binding entry in test [5] and in test [3] was “binds” each time.

The values are drawn from patent US20260008847A1 (ELPISCIENCE SUZHOU BIOPHARMA, published 2026).
